This is an account of results in PMC10063618.

These are yes or no findings as the source states them, for the method shown. In cells and extracts the contact can be indirect. A yes stands for co-enrichment or nearness to the bait. Other partners may have been found. Where a sequence is shown, tags or fusion partners need not be part of it.

The target of this test is T1, YFP-FREE1 (transgenic Arabidopsis seedlings, bait of the IP-MS) (Arabidopsis thaliana) (UniProt Q9ASS2).
T1 sequence: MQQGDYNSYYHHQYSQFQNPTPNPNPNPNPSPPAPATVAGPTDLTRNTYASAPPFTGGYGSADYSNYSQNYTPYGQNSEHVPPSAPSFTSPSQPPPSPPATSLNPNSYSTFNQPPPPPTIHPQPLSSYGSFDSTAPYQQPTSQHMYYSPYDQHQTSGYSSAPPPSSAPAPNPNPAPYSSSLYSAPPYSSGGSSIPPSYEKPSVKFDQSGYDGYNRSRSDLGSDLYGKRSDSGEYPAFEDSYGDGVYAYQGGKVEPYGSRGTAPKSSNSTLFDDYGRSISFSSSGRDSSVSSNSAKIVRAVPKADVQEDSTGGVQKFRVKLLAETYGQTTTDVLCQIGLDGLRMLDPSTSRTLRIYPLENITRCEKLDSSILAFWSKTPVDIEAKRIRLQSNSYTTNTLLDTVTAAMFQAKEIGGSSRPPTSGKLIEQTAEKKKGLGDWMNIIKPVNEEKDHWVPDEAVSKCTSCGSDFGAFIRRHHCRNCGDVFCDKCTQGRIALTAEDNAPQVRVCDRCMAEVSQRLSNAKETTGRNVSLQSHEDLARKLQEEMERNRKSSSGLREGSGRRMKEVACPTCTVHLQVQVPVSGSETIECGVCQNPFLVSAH
The experiment in a line: affinity purification with mass spectrometry; GFP-Trap magnetic beads at 4 °C on extracts of 5 DAG transgenic seedlings expressing YFP-FREE1 after carbon starvation for at least 18 h; IP buffer 50 mM Tris-HCl pH 7.4, 150 mM NaCl, 1 mM MgCl2, 20% glycerol, 0.2% NP-40; GFP control; iBAQ (MaxQuant).

B1: KIN10 (SnRK1α1), endogenous (enzyme, UniProt Q38997 1-512)
chain: MDGSGTGSRSGVESILPNYKLGRTLGIGSFGRVKIAEHALTGHKVAIKILNRRKIKNMEMEEKVRREIKILRLFMHPHIIRLYEVIETPTDIYLVMEYVNSGELFDYIVEKGRLQEDEARNFFQQIISGVEYCHRNMVVHRDLKPENLLLDSKCNVKIADFGLSNIMRDGHFLKTSCGSPNYAAPEVISGKLYAGPEVDVWSCGVILYALLCGTLPFDDENIPNLFKKIKGGIYTLPSHLSPGARDLIPRMLVVDPMKRVTIPEIRQHPWFQAHLPRYLAVPPPDTVQQAKKIDEEILQEVINMGFDRNHLIESLRNRTQNDGTVTYYLILDNRFRASSGYLGAEFQETMEGTPRMHPAESVASPVSHRLPGLMEYQGVGLRSQYPVERKWALGLQSRAHPREIMTEVLKALQDLNVCWKKIGHYNMKCRWVPNSSADGMLSNSMHDNNYFGDESSIIENEAAVKSPNVVKFEIQLYKTRDDKYLLDLQRVQGPQFLFLDLCAAFLAQLRVL
Consider B1, for which the binding entry was “binds”.
